A short description of the data set: general procedure: Boc solid-phase peptide synthesis; Benzhydrylamine polystyrene resin (Bachem, Inc.). As to conditions: whole synthesis, scale 0.5 mmole.

Square brackets hold non-standard residues; d marks the D form. Ends that are not written are not given here. d2Nal = N[C@H](Cc1ccc2ccccc2c1)C(=O)O

For the substance Ac-[d2Nal][dF][dF]SY[dR]FRP[dA], the isolated mass amounted to 117 mg.
